± gives the standard deviation of the averaged measurements. This is a selection; strong and weak results do not stand in their true shares.
Compound: Nc1ncnc2c1ncn2[C@@H]1O[C@H](COP(=O)(O)OP(=O)(O)NP(=O)(O)O)[C@@H](O)[C@H]1O [adenylyl imidodiphosphate]
Assay: NP40-soluble protein abundance relative to vehicle (solubility fold change) (ratio); higher = more soluble protein in presence of AMP-PNP
In short: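 In three independent experiments, Jurkat crude lysate made by Dounce homogenisation was treated for 10 min at room temperature and then 3 min at 37 °C with eight concentrations ranging from 0.1 to 10 mM. It was then solubilised with 0.8% NP40 plus benzonase for 60 min at 4 °C and ultracentrifuged. The supernatant was TMT-labelled for LC-MS/MS, and each value is the fold change against the detergent-processed vehicle for the same replicate, using vsn-normalised intensities.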

The chains behind the UniProt entries cited, without tags or fusion partners. Where a name states a change or a piece, a line headed by the entry shows the natural chain unless it says otherwise.
UniProt P20963, whole entry: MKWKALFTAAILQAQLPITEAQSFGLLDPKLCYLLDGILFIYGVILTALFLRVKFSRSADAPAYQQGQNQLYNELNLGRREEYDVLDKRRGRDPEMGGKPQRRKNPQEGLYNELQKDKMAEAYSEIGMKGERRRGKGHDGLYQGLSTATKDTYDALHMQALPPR
UniProt P26640: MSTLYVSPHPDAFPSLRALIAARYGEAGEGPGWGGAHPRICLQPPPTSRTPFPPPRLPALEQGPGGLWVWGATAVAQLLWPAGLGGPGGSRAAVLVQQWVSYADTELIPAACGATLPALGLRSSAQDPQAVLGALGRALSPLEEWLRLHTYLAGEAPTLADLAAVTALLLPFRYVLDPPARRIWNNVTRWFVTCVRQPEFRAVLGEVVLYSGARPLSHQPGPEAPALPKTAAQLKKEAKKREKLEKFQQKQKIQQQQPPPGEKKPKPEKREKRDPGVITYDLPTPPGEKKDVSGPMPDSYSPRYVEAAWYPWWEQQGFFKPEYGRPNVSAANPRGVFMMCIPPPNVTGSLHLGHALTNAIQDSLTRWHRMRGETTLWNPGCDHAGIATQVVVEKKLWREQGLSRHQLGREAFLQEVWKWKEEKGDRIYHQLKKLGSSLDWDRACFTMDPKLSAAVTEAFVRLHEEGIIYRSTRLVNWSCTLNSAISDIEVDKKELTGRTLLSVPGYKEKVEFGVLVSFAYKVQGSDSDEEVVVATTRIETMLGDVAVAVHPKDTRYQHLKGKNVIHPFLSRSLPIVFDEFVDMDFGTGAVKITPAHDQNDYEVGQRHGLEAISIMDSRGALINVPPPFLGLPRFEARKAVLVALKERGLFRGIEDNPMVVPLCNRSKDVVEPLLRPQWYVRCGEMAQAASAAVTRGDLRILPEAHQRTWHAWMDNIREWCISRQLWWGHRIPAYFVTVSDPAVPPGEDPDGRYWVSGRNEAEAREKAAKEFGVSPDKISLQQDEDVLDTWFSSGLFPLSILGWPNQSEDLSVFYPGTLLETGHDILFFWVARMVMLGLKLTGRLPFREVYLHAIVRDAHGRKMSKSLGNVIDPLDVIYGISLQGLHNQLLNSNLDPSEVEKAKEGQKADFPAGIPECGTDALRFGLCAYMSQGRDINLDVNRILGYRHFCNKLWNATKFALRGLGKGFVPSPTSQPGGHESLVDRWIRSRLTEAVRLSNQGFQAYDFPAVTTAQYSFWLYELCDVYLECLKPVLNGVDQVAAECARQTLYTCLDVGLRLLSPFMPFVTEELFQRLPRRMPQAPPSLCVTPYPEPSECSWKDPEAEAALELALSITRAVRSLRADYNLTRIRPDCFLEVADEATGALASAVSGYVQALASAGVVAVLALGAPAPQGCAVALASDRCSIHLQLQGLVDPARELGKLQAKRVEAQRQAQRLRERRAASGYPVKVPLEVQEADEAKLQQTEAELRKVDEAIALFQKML
UniProt P35250, whole entry: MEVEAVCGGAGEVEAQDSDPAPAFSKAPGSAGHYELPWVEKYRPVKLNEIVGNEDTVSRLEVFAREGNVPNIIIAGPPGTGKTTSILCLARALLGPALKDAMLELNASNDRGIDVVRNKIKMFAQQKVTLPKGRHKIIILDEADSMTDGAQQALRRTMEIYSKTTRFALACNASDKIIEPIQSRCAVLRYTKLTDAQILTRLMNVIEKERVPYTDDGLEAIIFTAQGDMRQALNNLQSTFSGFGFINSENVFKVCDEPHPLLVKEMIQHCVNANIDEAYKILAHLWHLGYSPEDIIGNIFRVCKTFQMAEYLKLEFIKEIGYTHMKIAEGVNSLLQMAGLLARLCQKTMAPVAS
UniProt P28749: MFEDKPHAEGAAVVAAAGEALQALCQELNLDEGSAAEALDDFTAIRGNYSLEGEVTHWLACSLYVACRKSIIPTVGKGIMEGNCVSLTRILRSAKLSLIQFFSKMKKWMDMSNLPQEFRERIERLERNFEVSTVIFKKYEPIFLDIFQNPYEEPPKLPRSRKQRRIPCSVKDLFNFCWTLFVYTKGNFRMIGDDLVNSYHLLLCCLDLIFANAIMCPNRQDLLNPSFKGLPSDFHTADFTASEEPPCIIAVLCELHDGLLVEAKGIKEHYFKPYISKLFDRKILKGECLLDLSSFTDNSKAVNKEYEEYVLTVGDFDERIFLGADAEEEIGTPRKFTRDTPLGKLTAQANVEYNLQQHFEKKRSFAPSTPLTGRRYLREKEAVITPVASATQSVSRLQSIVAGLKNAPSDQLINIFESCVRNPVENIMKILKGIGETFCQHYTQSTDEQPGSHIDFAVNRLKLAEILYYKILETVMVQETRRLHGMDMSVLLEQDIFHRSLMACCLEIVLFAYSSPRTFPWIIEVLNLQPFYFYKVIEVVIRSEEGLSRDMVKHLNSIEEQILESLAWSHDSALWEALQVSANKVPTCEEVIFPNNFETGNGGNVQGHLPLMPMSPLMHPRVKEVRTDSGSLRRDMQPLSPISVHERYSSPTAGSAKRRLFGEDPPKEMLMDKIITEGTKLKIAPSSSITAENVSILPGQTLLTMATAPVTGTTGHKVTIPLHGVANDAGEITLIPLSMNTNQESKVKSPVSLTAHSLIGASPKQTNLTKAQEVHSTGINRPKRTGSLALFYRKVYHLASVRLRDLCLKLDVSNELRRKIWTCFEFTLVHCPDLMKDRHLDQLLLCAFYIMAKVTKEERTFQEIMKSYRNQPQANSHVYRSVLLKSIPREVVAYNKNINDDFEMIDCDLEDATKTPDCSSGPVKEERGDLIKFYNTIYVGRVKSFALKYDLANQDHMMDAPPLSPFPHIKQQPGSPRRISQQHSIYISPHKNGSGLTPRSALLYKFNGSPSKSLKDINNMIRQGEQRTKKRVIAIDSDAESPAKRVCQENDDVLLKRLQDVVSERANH
UniProt P30405: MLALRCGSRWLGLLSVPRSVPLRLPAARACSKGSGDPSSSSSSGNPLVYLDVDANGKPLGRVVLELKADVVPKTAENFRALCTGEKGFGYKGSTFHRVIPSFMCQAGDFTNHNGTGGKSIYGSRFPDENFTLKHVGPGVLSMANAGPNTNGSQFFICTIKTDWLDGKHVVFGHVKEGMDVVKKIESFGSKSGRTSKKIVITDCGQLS
UniProt P31150: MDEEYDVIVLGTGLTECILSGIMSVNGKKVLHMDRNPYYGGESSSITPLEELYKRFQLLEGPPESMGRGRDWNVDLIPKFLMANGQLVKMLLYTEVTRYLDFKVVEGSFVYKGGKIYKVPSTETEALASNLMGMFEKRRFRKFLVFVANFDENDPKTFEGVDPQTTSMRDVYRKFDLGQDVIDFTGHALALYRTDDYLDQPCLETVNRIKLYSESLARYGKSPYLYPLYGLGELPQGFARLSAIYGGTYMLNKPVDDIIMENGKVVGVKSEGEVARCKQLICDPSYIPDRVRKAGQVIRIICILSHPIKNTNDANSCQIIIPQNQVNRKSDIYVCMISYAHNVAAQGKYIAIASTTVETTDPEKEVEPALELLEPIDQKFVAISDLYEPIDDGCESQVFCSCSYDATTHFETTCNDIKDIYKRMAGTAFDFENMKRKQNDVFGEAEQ
UniProt P28161: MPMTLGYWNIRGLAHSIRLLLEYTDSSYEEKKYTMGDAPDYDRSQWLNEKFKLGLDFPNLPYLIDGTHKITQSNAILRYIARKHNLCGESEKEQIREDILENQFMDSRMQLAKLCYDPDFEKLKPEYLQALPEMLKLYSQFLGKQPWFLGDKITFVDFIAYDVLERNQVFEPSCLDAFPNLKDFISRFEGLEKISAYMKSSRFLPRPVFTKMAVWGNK
UniProt P18859: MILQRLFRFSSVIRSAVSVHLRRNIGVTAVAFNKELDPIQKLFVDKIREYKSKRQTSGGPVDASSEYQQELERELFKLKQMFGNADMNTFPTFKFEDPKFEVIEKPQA
UniProt P25098: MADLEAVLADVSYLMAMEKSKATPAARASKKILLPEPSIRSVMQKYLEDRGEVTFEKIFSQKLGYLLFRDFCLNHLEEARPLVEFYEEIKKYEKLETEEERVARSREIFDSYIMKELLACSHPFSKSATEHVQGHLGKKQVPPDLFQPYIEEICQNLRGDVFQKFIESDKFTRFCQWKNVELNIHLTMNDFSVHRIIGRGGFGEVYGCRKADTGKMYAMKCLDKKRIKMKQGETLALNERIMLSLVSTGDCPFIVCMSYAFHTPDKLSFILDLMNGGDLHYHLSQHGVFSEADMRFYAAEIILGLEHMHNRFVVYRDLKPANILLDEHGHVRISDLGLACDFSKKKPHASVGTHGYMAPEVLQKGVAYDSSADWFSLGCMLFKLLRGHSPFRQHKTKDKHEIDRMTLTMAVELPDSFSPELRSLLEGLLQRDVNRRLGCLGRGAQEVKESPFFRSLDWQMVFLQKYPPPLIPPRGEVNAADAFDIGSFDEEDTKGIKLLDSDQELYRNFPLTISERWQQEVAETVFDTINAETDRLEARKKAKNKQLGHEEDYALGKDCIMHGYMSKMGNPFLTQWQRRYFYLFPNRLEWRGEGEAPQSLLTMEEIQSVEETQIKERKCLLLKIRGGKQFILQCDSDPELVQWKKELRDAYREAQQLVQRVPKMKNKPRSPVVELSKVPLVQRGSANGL
UniProt P17900: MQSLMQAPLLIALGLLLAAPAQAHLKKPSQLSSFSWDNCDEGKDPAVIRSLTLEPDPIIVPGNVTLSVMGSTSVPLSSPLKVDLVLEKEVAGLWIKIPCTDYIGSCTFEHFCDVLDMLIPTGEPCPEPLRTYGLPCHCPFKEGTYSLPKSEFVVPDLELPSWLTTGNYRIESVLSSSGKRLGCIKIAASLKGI
UniProt P26374: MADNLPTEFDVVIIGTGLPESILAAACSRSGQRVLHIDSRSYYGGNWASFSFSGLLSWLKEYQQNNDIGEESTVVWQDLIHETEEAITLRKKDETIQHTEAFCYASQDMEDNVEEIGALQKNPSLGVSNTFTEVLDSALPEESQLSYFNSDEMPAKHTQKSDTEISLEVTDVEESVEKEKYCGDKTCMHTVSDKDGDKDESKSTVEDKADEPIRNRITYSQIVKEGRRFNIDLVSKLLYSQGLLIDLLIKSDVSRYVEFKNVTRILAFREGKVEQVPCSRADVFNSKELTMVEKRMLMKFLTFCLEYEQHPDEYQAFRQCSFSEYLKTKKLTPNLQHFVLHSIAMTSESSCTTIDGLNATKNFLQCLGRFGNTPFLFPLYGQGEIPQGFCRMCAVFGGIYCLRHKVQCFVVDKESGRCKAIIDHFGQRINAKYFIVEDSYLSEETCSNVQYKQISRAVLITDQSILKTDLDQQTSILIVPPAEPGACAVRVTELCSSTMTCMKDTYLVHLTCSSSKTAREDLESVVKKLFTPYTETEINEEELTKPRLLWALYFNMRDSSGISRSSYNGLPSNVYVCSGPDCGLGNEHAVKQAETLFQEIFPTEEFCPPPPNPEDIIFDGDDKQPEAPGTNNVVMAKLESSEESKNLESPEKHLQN
UniProt P23229: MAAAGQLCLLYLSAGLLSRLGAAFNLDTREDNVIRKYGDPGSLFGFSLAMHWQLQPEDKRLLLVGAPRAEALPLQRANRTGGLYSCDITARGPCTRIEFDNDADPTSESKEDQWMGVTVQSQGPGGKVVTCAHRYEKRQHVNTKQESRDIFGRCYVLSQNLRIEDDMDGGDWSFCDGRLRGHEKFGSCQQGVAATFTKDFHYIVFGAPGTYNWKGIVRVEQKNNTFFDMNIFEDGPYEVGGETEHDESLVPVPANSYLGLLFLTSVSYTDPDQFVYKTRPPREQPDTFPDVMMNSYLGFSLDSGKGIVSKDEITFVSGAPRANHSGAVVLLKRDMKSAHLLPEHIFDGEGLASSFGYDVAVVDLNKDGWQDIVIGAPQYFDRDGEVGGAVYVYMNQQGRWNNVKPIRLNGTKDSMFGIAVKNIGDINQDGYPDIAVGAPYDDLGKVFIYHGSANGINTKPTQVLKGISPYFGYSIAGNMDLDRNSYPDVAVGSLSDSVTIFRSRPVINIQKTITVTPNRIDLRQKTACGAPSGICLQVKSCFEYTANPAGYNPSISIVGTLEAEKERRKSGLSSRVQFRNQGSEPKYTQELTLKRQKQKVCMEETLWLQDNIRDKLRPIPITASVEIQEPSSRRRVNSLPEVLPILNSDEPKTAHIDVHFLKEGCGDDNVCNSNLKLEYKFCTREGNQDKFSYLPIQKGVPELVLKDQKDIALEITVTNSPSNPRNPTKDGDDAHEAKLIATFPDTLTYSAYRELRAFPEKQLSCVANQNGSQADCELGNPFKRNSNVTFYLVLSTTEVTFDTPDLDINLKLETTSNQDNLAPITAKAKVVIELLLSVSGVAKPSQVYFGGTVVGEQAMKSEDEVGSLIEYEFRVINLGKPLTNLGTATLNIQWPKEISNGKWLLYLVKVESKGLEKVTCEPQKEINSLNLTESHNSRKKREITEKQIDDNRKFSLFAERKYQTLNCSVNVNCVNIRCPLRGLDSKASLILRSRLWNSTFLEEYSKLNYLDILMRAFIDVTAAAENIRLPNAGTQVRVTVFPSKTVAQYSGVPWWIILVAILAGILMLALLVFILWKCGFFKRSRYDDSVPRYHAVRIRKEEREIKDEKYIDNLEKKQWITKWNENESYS

Target	NP40-soluble protein abundance (concentration: 1mM)	NP40-soluble protein abundance (concentration: 2mM)	NP40-soluble protein abundance (concentration: 4mM)	NP40-soluble protein abundance (concentration: 6mM)	NP40-soluble protein abundance (concentration: 8mM)	NP40-soluble protein abundance (concentration: 10mM)
UniProt P26038 and related entries	0.967 ± 0.13	1.06 ± 0.14	0.988 ± 0.13	0.916 ± 0.088	0.935 ± 0.012	0.936 ± 0.067
LRPAP1 (UniProt P30533)	1.04 ± 0.021	1.11 ± 0.098	1.04 ± 0.025	1.048 ± 0.0067	1.03 ± 0.028	1.05 ± 0.024
ERP29 (UniProt P30040)	0.989 ± 0.013	1.01 ± 0.03	0.987 ± 0.027	1 ± 0.059	1.02 ± 0.058	0.981 ± 0.077
UniProt P20963-3|P20963	0.998 ± 0.073	1.024 ± 0.0045	0.954 ± 0.051	0.917 ± 0.05	0.923 ± 0.015	0.906 ± 0.06
UniProt P19174 and related entries	0.955 ± 0.052	0.863 ± 0.096	0.957 ± 0.018	0.925 ± 0.019	0.953 ± 0.019	0.9011 ± 0.009
VARS (UniProt P26640)	0.967 ± 0.037	0.941 ± 0.07	0.945 ± 0.051	0.916 ± 0.07	0.913 ± 0.066	0.902 ± 0.086
RFC2 (UniProt P35250)	1.06 ± 0.047	1.03 ± 0.08	1.11 ± 0.058	1.17 ± 0.018	1.2 ± 0.056	1.23 ± 0.088
UniProt P29350 and related entries	1.01 ± 0.02	0.965 ± 0.036	0.985 ± 0.025	0.969 ± 0.014	0.987 ± 0.024	0.956 ± 0.024
UniProt P18754-2|P18754	1.05 ± 0.025	1.05 ± 0.019	1.054 ± 0.0037	1.07 ± 0.018	1.06 ± 0.013	1.09 ± 0.019
UniProt P28749 and related entries	0.992 ± 0.039	1.027 ± 0.0021	0.995 ± 0.037	0.9627 ± 0.001	0.951 ± 0.054	0.977 ± 0.069
UniProt P26358 and related entries	1.02 ± 0.013	1.017 ± 0.0047	1.011 ± 0.0092	1.015 ± 0.008	1.01 ± 0.0058	1.03 ± 0.031
UniProt P35658 and related entries	1.03 ± 0.018	1.07 ± 0.069	1.04 ± 0.046	1.03 ± 0.017	1.04 ± 0.025	1.11 ± 0.084
UniProt P28331 and related entries	0.972 ± 0.037	0.935 ± 0.081	0.954 ± 0.059	0.949 ± 0.055	0.938 ± 0.037	0.942 ± 0.086
NAGA (UniProt P17050)	1 ± 0.056	1.02 ± 0.059	1.03 ± 0.052	0.985 ± 0.027	0.976 ± 0.038	0.993 ± 0.068
RPS3 (UniProt P23396)	0.937 ± 0.036	0.867 ± 0.032	0.904 ± 0.099	0.878 ± 0.014	0.857 ± 0.057	0.885 ± 0.11
UniProt P18615	1.04 ± 0.017	1.08 ± 0.04	1.07 ± 0.012	1.05 ± 0.007	1.032 ± 0.0094	1.08 ± 0.016
SFPQ (UniProt P23246)	1.15 ± 0.054	1.25 ± 0.076	1.41 ± 0.12	1.68 ± 0.26	1.75 ± 0.28	2.02 ± 0.41
UniProt P18858 and related entries	1.04 ± 0.018	1.04 ± 0.042	1 ± 0.032	0.979 ± 0.016	0.969 ± 0.012	0.966 ± 0.02
NMT1 (UniProt P30419)	1.087 ± 0.0079	1.1 ± 0.015	1.13 ± 0.048	1.16 ± 0.038	1.2 ± 0.019	1.2 ± 0.067
CAPG (UniProt P40121)	1.04 ± 0.038	1.06 ± 0.054	0.993 ± 0.032	0.983 ± 0.039	0.944 ± 0.04	0.954 ± 0.042

Given comma-delimited: entries from further up.
Target,NP40-soluble protein abundance (concentration: 1mM),NP40-soluble protein abundance (concentration: 2mM),NP40-soluble protein abundance (concentration: 4mM),NP40-soluble protein abundance (concentration: 6mM),NP40-soluble protein abundance (concentration: 8mM),NP40-soluble protein abundance (concentration: 10mM)
LRPAP1 (UniProt P30533),1.04 ± 0.021,1.11 ± 0.098,1.04 ± 0.025,1.048 ± 0.0067,1.03 ± 0.028,1.05 ± 0.024
UniProt P28331 and related entries,0.972 ± 0.037,0.935 ± 0.081,0.954 ± 0.059,0.949 ± 0.055,0.938 ± 0.037,0.942 ± 0.086
CAPG (UniProt P40121),1.04 ± 0.038,1.06 ± 0.054,0.993 ± 0.032,0.983 ± 0.039,0.944 ± 0.04,0.954 ± 0.042

(continued)

Target	NP40-soluble protein abundance (concentration: 1mM)	NP40-soluble protein abundance (concentration: 2mM)	NP40-soluble protein abundance (concentration: 4mM)	NP40-soluble protein abundance (concentration: 6mM)	NP40-soluble protein abundance (concentration: 8mM)	NP40-soluble protein abundance (concentration: 10mM)
AGL (UniProt P35573)	1.04 ± 0.077	0.999 ± 0.11	1.1 ± 0.12	1.08 ± 0.16	1.17 ± 0.17	1.18 ± 0.23
UniProt P30520	0.996 ± 0.024	1 ± 0.027	0.9881 ± 0.0078	0.9726 ± 0.0048	0.9707 ± 0.0055	0.9624 ± 0.0086
UniProt P34896 and related entries	1.01 ± 0.029	0.928 ± 0.077	0.964 ± 0.024	0.9644 ± 0.009	0.976 ± 0.028	0.95 ± 0.047
PPIF (UniProt P30405)	1.01 ± 0.032	1.03 ± 0.047	0.993 ± 0.046	1.03 ± 0.019	0.989 ± 0.03	1.01 ± 0.049
UniProt P20339 and related entries	0.999 ± 0.025	0.972 ± 0.048	1 ± 0.019	1.05 ± 0.081	1.07 ± 0.074	1.06 ± 0.05
GDI1 (UniProt P31150)	1.02 ± 0.02	0.975 ± 0.048	1.02 ± 0.027	0.942 ± 0.021	0.982 ± 0.018	0.924 ± 0.015
CBL (UniProt P22681)	1.03 ± 0.051	1.04 ± 0.059	1.04 ± 0.058	1.04 ± 0.053	1.05 ± 0.043	1.07 ± 0.013
UniProt P27361	0.991 ± 0.06	0.938 ± 0.031	0.974 ± 0.038	1.01 ± 0.082	1.04 ± 0.07	1 ± 0.029
UniProt P17544-2|P17544-4|P17544-6	1.03 ± 0.067	1.04 ± 0.073	1 ± 0.051	1.01 ± 0.081	1.01 ± 0.039	1.01 ± 0.057
IGFBP2 (UniProt P18065)	1.03 ± 0.034	1.03 ± 0.058	1.01 ± 0.067	0.966 ± 0.0077	0.991 ± 0.021	0.957 ± 0.014
UniProt P26639	0.974 ± 0.018	0.904 ± 0.07	0.9517 ± 0.0031	0.94 ± 0.017	0.968 ± 0.01	0.9179 ± 0.0046
SRM (UniProt P19623)	0.998 ± 0.012	0.948 ± 0.056	0.994 ± 0.0049	0.978 ± 0.032	1.01 ± 0.043	0.977 ± 0.021
GSTM2 (UniProt P28161)	0.988 ± 0.041	0.959 ± 0.036	0.945 ± 0.046	0.942 ± 0.013	0.953 ± 0.01	0.901 ± 0.012
UniProt P18859 and related entries	0.948 ± 0.053	0.899 ± 0.032	0.867 ± 0.062	0.834 ± 0.05	0.825 ± 0.063	0.857 ± 0.026
UniProt P25098	1.013 ± 0.0097	0.985 ± 0.061	0.994 ± 0.028	0.982 ± 0.035	0.987 ± 0.03	0.979 ± 0.057
ME2 (UniProt P23368)	0.932 ± 0.029	0.83 ± 0.14	0.928 ± 0.044	0.918 ± 0.031	0.962 ± 0.024	0.876 ± 0.035
BCKDHB (UniProt P21953)	0.962 ± 0.032	0.904 ± 0.12	0.993 ± 0.056	0.952 ± 0.055	0.998 ± 0.018	0.95 ± 0.046
GM2A (UniProt P17900)	0.993 ± 0.035	0.987 ± 0.025	0.982 ± 0.042	0.9732 ± 0.0092	0.971 ± 0.016	0.955 ± 0.031
FKBP2 (UniProt P26885)	0.999 ± 0.02	1.04 ± 0.045	0.966 ± 0.019	0.9573 ± 0.0058	0.96 ± 0.011	0.945 ± 0.031
UniProt P21964 and related entries	0.963 ± 0.039	0.894 ± 0.068	0.937 ± 0.035	0.95 ± 0.018	0.962 ± 0.03	0.919 ± 0.038

Target	NP40-soluble protein abundance (concentration: 1mM)	NP40-soluble protein abundance (concentration: 2mM)	NP40-soluble protein abundance (concentration: 4mM)	NP40-soluble protein abundance (concentration: 6mM)	NP40-soluble protein abundance (concentration: 8mM)	NP40-soluble protein abundance (concentration: 10mM)
HSPA4 (UniProt P34932)	0.977 ± 0.015	0.995 ± 0.023	0.9682 ± 0.0059	0.982 ± 0.0082	0.94 ± 0.026	0.949 ± 0.046
SOAT1 (UniProt P35610)	0.992 ± 0.049	0.956 ± 0.13	0.948 ± 0.075	0.912 ± 0.027	0.918 ± 0.033	0.902 ± 0.038
UniProt P29353 and related entries	1.02 ± 0.044	1.02 ± 0.022	1.01 ± 0.035	1.01 ± 0.065	0.997 ± 0.056	1 ± 0.059
UniProt P35240 and related entries	1.01 ± 0.023	1.01 ± 0.049	1.048 ± 0.0075	1 ± 0.018	0.985 ± 0.03	0.992 ± 0.025
CHML (UniProt P26374)	0.984 ± 0.012	1 ± 0.019	1.01 ± 0.048	0.983 ± 0.018	0.979 ± 0.028	0.9504 ± 0.0073
ACO1 (UniProt P21399)	0.9805 ± 0.0096	0.944 ± 0.012	0.957 ± 0.014	0.968 ± 0.027	0.976 ± 0.027	0.931 ± 0.038
PRKAR2B (UniProt P31323)	1 ± 0.043	0.97 ± 0.062	0.982 ± 0.037	0.989 ± 0.027	1.01 ± 0.058	1.01 ± 0.046
UniProt P28074 and related entries	0.925 ± 0.072	0.828 ± 0.082	0.936 ± 0.12	0.95 ± 0.062	1.02 ± 0.11	1 ± 0.2
UniProt P31942 and related entries	1.01 ± 0.1	1.02 ± 0.078	1 ± 0.13	1.02 ± 0.11	0.984 ± 0.076	1.02 ± 0.1
OSBP (UniProt P22059)	0.977 ± 0.025	0.95 ± 0.041	0.947 ± 0.025	0.926 ± 0.025	0.91 ± 0.02	0.892 ± 0.025
UniProt P35244 and related entries	0.989 ± 0.022	0.9771 ± 0.0058	0.9574 ± 0.0044	0.981 ± 0.032	0.957 ± 0.037	0.944 ± 0.038
SRP14 (UniProt P37108)	0.951 ± 0.0084	1.03 ± 0.096	0.944 ± 0.015	1.01 ± 0.054	0.979 ± 0.042	1.01 ± 0.064
UniProt P36402-5	0.952 ± 0.025	0.984 ± 0.03	0.924 ± 0.046	0.876 ± 0.025	0.8484 ± 0.0036	0.837 ± 0.015
UniProt P21359 and related entries	0.979 ± 0.014	0.951 ± 0.034	0.9712 ± 0.0078	0.955 ± 0.025	0.954 ± 0.029	0.928 ± 0.046
UniProt P25054 and related entries	0.982 ± 0.042	1.04 ± 0.029	1.01 ± 0.055	1 ± 0.044	0.994 ± 0.05	1.01 ± 0.022
UniProt P16989 and related entries	0.94 ± 0.041	0.983 ± 0.11	0.916 ± 0.079	0.895 ± 0.076	0.859 ± 0.095	0.852 ± 0.087
UniProt P23229 and related entries	1.03 ± 0.054	1.08 ± 0.084	1.03 ± 0.036	1.03 ± 0.049	1 ± 0.038	1.01 ± 0.069
DEK (UniProt P35659)	1.07 ± 0.025	1.19 ± 0.11	1.16 ± 0.029	1.21 ± 0.039	1.15 ± 0.11	1.26 ± 0.074
EEF1B2 (UniProt P24534)	1.09 ± 0.18	0.936 ± 0.22	0.93 ± 0.067	0.822 ± 0.21	0.863 ± 0.12	0.845 ± 0.12
RPS19 (UniProt P39019)	0.971 ± 0.045	0.958 ± 0.069	0.885 ± 0.077	0.829 ± 0.056	0.769 ± 0.055	0.852 ± 0.11

Source: the supplement of paper PMC6411743
